According to EP0743064A1, “Leukotriene antagonists for use in the treatment or prevention of alzheimer's disease” (ELI LILLY AND COMPANY, priority 1995, dated 1996):
Counter-ions that a name gives are not always drawn. At least one compound was matched to its structure with a doubt left.

Sequences of proteins named here, by UniProt entry; tags and fusion partners are left off. Residues count along the entry.
UniProt H0VYV8, 1-348: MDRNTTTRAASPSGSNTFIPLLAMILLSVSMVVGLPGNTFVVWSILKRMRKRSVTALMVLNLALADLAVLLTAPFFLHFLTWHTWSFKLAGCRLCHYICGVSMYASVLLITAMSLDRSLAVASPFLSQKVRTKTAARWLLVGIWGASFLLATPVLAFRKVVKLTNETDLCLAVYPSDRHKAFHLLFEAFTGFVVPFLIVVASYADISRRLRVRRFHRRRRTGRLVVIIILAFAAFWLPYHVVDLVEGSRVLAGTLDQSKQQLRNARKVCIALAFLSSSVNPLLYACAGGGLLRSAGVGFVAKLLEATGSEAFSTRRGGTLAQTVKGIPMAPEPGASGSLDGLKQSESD

Biological target: T1, binding of tritiated LTB4 to guinea pig lung membranes (Cavia porcellus, UniProt H0VYV8)
T1 construct: contained 25 mg of guinea pig lung membrane protein; from tissue; host or cells: guinea pig lung membranes
Conditions: mean -log Ki for n experiments; IC50 corrected for radioligand concentration (Cheng and Prusoff); approximately 140 pM [^3H]-LTB4, 45 minutes at 30°C, pH 6.5

Work on `CCc1cc(-c2ccc(F)cc2)c(O)cc1OCCCOc1cccc(C(=O)c2ccccc2C(=O)O)c1` [Example 97, 2-[3-[3-[2-Ethyl-5-hydroxy-4-(4-fluorophenyl)phenoxy]propoxy]benzoyl]benzoic acid disodium salt hemihydrate] yielded a pKi of 7.67.
